Consider 1 sequence from article PMC4070925.

The test system of the data set is thrombin. Description: plate binding assay (streptavidin-peroxidase). The note with it: Thrombin-coated plate; washes 40 mM HEPES pH 7.5, 0.05% Tween-20; commercial protein; label: 5'-biotin; single-stranded DNA.

Consider “TTGGTTGGCGTTCAAAGCAGTCTTGGGCTA [Truncate IV]”, for which the half-maximal binding was > 1000 nM.
